This data set addresses rU2AF65 (UniProt P26368). In words: EMSA. The conditions noted are these: 1-3 ug rU2AF65, dose dependent; EMSA: 50 mM Hepes-KOH pH 7.6, 40 mM MgCl2, 20 mM spermidine, 0.1 mM DTT, 0.5 mM EDTA, 1.5 mM ATP, 20% glycerol, 0.4 ug/uL tRNA, room temperature; recombinant protein; residues 2-475; protein details: His (pPROEX HTb); probe letters rebuilt from the primers and the genome.

By UniProt entry, the sequences of proteins in these tests, tags left out. Residues count along the entry.
UniProt P26368, 2-475: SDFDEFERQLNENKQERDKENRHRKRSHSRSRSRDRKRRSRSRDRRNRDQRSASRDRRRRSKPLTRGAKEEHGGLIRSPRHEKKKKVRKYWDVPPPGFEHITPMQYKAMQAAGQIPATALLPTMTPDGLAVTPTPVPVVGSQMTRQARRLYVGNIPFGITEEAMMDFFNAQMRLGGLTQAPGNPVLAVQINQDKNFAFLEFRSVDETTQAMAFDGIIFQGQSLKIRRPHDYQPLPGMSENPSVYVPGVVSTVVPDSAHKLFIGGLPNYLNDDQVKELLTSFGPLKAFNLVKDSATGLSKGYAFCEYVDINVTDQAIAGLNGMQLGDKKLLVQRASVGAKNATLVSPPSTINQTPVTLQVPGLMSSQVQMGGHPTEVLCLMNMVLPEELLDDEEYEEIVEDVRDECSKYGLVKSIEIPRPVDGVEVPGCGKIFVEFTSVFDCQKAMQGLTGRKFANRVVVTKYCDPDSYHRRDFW

The results in this text go back to paper PMC3390395.

The exact form of at least one protein or probe is not confirmed.

In the case of “GCUACAGUGUGAUCUAGAUGGGUAUGUAUUCAGGUAGAAUGUAUUACUCUUAUGCCUUUAAUUUGGGGGUGGGGGUUCUGGUUUUUUAUGUA [G2-G3~N-PU wild type probe]”, the binding result is “binds”.
